Test [1] concerns the target T1, Spn2-GST (S. pombe) (UniProt Q09116).
T1 sequence: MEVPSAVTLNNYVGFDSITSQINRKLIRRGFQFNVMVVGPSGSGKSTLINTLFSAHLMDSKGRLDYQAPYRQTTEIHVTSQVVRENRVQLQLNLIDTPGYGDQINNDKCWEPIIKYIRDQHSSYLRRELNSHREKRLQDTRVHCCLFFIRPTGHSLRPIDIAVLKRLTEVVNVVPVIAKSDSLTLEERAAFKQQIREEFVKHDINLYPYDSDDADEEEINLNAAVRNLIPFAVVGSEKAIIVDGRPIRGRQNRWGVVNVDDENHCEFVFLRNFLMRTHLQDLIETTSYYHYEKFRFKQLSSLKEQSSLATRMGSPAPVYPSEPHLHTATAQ
Briefly: pull-down.

For test [2], the target named is T2, Bub1-GFP (S. pombe) (UniProt O94751).
T2 sequence: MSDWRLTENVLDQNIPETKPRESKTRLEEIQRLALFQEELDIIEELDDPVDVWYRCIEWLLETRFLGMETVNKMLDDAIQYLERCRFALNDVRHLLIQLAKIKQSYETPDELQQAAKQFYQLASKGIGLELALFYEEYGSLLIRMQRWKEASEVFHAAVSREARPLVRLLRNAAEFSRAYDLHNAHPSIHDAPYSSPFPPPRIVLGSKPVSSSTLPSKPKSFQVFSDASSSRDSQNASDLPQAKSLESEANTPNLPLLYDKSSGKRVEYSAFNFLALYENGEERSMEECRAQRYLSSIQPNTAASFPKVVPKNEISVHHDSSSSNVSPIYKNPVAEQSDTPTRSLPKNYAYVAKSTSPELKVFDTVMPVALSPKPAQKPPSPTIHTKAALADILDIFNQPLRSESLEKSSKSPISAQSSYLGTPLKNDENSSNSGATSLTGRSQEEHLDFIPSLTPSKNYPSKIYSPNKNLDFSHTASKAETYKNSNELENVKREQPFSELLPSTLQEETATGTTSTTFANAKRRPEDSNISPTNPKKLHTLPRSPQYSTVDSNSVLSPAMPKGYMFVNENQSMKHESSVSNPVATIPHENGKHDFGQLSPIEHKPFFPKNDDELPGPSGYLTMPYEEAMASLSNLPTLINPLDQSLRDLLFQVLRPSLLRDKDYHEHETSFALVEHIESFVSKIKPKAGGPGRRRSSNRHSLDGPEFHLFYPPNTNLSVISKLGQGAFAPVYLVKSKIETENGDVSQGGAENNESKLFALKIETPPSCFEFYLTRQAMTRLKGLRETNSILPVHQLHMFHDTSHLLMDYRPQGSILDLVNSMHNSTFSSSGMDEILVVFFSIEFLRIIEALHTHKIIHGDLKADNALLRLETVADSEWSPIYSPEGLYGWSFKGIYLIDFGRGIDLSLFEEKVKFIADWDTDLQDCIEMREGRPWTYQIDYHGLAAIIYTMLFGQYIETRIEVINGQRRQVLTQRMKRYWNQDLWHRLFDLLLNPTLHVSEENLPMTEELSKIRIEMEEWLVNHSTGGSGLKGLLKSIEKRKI
Put plainly: co-IP.

The target of test [3] is T3, Rga6(FL)-GFP (S. pombe) (UniProt O43027).
T3 sequence: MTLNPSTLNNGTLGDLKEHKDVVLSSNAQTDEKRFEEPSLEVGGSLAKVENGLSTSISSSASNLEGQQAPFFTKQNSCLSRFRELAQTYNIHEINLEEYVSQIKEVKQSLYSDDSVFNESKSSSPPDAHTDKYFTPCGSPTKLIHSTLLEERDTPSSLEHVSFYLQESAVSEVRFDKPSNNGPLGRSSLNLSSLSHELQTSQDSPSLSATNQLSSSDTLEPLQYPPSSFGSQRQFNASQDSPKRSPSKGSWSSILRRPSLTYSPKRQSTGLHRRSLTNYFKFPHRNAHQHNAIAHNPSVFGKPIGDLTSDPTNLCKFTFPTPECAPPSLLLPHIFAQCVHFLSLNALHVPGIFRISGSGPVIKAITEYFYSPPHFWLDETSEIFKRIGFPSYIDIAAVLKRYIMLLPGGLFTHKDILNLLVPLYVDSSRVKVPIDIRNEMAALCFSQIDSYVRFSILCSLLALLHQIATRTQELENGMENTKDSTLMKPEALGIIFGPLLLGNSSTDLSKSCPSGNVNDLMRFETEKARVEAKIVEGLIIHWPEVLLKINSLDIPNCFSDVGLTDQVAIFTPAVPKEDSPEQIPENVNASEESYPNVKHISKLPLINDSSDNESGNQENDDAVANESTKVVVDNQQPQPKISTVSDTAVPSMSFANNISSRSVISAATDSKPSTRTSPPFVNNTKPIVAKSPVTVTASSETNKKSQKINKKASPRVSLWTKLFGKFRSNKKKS
Put plainly: co-IP.

For test [4], the target named is T4, Rga6-3GFP (S. pombe) (UniProt O43027).
T4 sequence: T3 sequence
Put plainly: co-IP.

For test [5], the target named is T5, Spn2-3GFP (S. pombe) (UniProt Q09116).
T5 sequence: T1 sequence
Briefly: co-IP.

The record followed here is publication doi:10.1101/2021.03.30.437639.

No constants are given. Whether binding was seen depends on the method and setting. In cells and extracts the contact can be indirect. Some results given as binding are weak or reduced against the parent protein; the word gives no strength. Where a sequence is shown, tags or fusion partners need not be part of it.

B1: Spn3 (co-expressed in E. coli) (protein, UniProt P48008 1-373)
chain: MRTTKKSSKKGIPLNLMVVGDVGLGRTAFINTLCEKPLIRHNNNFDPAEASSVSPVEIVPYQTDIILEDGTKINLTVLDTPHFGEAIDNENNFDIILQYIESQYDNVLEEESRIKRNARFCDDRVHALIYFISPTGHGLRELDIELMRRLAPRVNIIPAIAKADSLTAQELQTTKEMINADIEYYKIPVYDFPYDIEEDEEAIINLSQQLRATIPFAIVSSDRLIEMNGQTVRGRAYPWGVVEVDNPRHSDFLALRSALFATHIEDLHNITSNQLYETYRTEKLSTSQLLLDSTVGLDGKNLSQHDQVLREDRLRAIELSVQKEIEEKRRQLLAREEALRALEEKLAASTAAMANASVSTLPSSVSSTNHSQS
As for B1, the binding result in test [1] was “binds”.

B2: Spn1-tdTomato (protein, UniProt O36023 1-469)
chain: MASMVLADGMPTVKDDSTRSRGSDVDSFTSTDNVTQINVEAAISENKNEEKPIQDNSEQEFNPHVSIIQRQLNGYVGFASLPNQWHRRCVRQGFNFNVLVLGESGSGKSTLVNTLLNRDVYPPTQKSLTGDFGVNPEPTVMINSSAVEIVENGISLQLNVIDTPGFGDFIDNTDCWQPVLTDIEGRYDQYLELEKHNPRSTIQDPRVHACIFFIQPTGHAISAMELRVMLALHEKVNIIPIIAKADTLTDDELNFTKEMILRDIQYHNIRIFFPPTYETDDPESVAENADIMSRIPFAIIASNTFVVNNEGKRVRGRRYPWGVVEVDNEEHSDFPKLREMLIRTHLEELKEQTNKLYEAYRTERLLSSGISQDHSVFREVNPSAKLEEERALHEEKLMKMEAEMKTIFSQKVQEKEDRLKQSENELRTRHREMKAALEKQKADLIDHKNRLMQAKAAAENEKSKRKFFK
Consider B2, for which the binding entry is on record as “no binding” in test [2], “binds” in test [3], “binds” in test [4] and “binds” in test [5].

B3: Spn1 (co-expressed in E. coli) (protein, UniProt O36023 1-469)
chain: B2 chain
On to B3, for which the binding result in test [1] is recorded as “binds”.
